Experimental data from PMC13429570.
These are yes or no findings as the source states them, for the method shown. In cells and extracts the contact can be indirect. Some results given as binding are weak or reduced against the parent protein; the word gives no strength.

The chains behind the UniProt entries cited, without tags or fusion partners.
UniProt P04198: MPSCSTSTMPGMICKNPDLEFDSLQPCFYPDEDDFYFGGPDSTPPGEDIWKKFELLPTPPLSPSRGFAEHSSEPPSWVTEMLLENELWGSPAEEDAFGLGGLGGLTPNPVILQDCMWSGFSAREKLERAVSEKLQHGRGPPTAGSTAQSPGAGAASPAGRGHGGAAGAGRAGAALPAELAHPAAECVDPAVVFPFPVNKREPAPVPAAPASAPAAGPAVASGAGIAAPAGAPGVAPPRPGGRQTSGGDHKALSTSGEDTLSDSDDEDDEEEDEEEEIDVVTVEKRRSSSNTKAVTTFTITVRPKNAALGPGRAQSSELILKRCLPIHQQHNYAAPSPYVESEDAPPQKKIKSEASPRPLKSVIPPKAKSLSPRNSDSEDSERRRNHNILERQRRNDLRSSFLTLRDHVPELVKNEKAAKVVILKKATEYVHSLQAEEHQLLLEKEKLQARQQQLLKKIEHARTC
UniProt Q92841: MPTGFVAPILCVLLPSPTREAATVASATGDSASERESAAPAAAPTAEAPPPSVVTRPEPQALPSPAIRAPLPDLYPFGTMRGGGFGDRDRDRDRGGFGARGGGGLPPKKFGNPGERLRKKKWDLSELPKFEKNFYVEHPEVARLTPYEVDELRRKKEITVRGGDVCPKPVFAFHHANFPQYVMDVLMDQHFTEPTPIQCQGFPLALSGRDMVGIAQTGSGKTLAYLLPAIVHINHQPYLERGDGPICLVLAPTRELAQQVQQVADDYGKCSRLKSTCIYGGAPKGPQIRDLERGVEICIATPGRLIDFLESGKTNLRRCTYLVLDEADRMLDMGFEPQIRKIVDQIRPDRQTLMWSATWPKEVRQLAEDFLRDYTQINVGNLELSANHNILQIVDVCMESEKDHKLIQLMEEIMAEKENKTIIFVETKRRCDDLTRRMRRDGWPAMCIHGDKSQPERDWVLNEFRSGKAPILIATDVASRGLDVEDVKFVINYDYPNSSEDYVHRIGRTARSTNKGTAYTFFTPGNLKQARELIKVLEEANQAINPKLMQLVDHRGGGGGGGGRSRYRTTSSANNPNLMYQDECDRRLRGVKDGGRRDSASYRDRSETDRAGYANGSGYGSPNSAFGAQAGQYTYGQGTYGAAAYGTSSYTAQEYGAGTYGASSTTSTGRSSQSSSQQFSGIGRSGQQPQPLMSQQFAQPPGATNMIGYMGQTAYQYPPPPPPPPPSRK

Target: MYCN (human (endogenous in SK-N-BE(2))) (UniProt P04198)
Test: co-IP; IP of endogenous MYCN (mouse anti-MYCN) from SK-N-BE(2) lysate, pre-treated or not with 250 U/ml Benzonase; IP buffer 20 mM Tris-HCl pH 7.5, 150 mM NaCl, 2 mM EDTA, 1% NP40, 10% glycerol; overnight at 4 °C; western blot for DDX17 and DDX5

binding: binds
Substance: DEAD box helicase DDX17 (from UniProt Q92841 1-729)
